Source: PubChem BioAssay AID2685 (National Center for Advancing Translational Sciences (NCATS), 2010)
The list shows a part of the results. Shown are side measurements of this screen, not its main read-out; they come without a call. The list favours compounds with an active or inconclusive main result. The note in brackets gives the kind of curve behind each potency; many fits are weak.

Assay: qHTS Assay for Lipid Storage Modulators in Drosophila S3 Cells;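 as to cell number change: cells counted by Cell Tracker Red CMTPX staining in the red channel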
Settings: BODIPY lipid droplet fluorescence, 18-24 h; for cell number change: measured here: cell count max response, cells fed with added oleic acid
Procedure, shortened: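 Laser-scanning cytometry quantifies lipid droplet accumulation (500–530 nm total intensity; droplet/cell object ratio) in oleic acid-fed (400 uM added) Drosophila S3 cells treated with a concentration series. 20 uM Triacsin C defined 100% inhibition.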

[1] = measured here: lipid fluorescence (Fed channel) AC50, cells fed with added oleic acid
[2] = measured here: cell number channel AC50, cells fed with added oleic acid

| SMILES | cell number change [%] | AC50 [1] | AC50 [2] |
| --- | --- | --- | --- |
| O=C(Nc1nc2c(s1)CN(Cc1ccccc1)CC2)c1c(F)cccc1F | 10.3 | 10.3 µM [falling, single point] |  |
| CCN1C(=O)[C@H]2[C@@H](c3ccc(-c4ccc(F)cc4)cc3)N[C@@](CC(C)C)(C(=O)OC)[C@H]2C1=O | -26.9 | 16.4 µM [falling, partial curve, poor fit] |  |
| COC(=O)CN(c1ccccc1OC)S(=O)(=O)c1ccccc1 | -152 |  | 23.1 µM [falling, partial curve] |
| CC1(C)C2CCC1(CS(=O)(=O)N1CCN(c3ccccc3F)CC1)C(=O)C2 (centres undefined) | -3.28 | 6.51 µM [rising, single point] | 4.61 µM [rising, single point] |
| Cc1ccnc(NC(=O)CCNC(=O)c2ccc(Cl)cc2)c1 | 4.86 | 18.4 µM [falling, single point] |  |
| COc1cccc(CNC(=O)c2nnn(-c3ccc(OC(F)(F)F)cc3)c2N)c1 |  | 20.6 µM [rising, partial curve] | 6.51 µM [rising, single point] |
| CCOC(=O)N1CCN(C2CCCN(C(=O)c3ccccc3SC)C2)CC1 (centres undefined) | -72.4 | 5.8 µM [falling, full curve] | 9.2 µM [falling, partial curve] |
| COc1ccc([C@@H]2[C@@H]3C(=O)N(C(C)(C)C)C(=O)[C@@H]3[C@]3(Cc4ccccc4)C(=O)N(c4ccc(C(F)(F)F)cc4)C(=O)N23)cc1 | -2.91 |  |  |
| CC1Sc2ccc(S(=O)(=O)N3CCC(C(=O)N(C)Cc4ccccc4)CC3)cc2NC1=O (centres undefined) | 3.77 | 23.1 µM [falling, single point] |  |
| COC(=O)c1c(NC(=S)NN2CCN(C)CC2)sc2c1CCC(C)C2 (centres undefined) | -55.2 | 18.4 µM [falling, single point] | 20.6 µM [falling, single point] |
| CCCOC(=O)CSc1nnc(-c2ccccc2Cl)o1 | 32.3 | 1.64 µM [falling, partial curve] | 3.26 µM [rising, full curve] |
| O=C(NCCc1ccccc1)c1ccc2c(c1)N(Cc1ccccc1)C(=O)CS2=O (centres undefined) |  | 6.51 µM [rising, single point] | 4.11 µM [rising, single point] |
| O=C(CN1CCN(S(=O)(=O)c2cccc(Cl)c2)CC1)N1CCCCC1 | -16 |  |  |
| CCOC(=O)/C(C#N)=C/Nc1cc(OC)ccc1OC | 32.1 |  | 2.59 µM [rising, partial curve] |
| Oc1ccc2ccccc2c1CNn1cnnc1 | -5.6 | 29.1 µM [rising, partial curve, poor fit] |  |
| O=c1[nH]c2ccc(NS(=O)(=O)c3ccc([N+](=O)[O-])cc3)cc2[nH]1 | -22.2 | 29.1 µM [falling, single point] |  |
| COCCCNC(=O)C1CCN(C(=O)c2oc3cc4sc(N(C)C)nc4cc3c2C)CC1 | -68.2 |  | 14.6 µM [falling, single point] |
| CC(=O)OCC1OC(OCc2cn(C[C@H]3CC[C@H](Cn4cc(COC5OC(COC(C)=O)C(OC(C)=O)C(OC(C)=O)C5OC(C)=O)nn4)O3)nn2)C(OC(C)=O)C(OC(C)=O)C1OC(C)=O (some centres undefined) | 14.9 |  |  |
| CC(O/N=C/c1ccc(OC(F)F)cc1)C(=O)Nc1cccc(S(=O)(=O)N2CCOCC2)c1 (centres undefined) | 15.3 |  |  |
| Cc1cccc(NC(=O)c2ccc(N3CCOCC3)c([N+](=O)[O-])c2)n1 | 42.2 |  |  |

By substructure: those above containing a Cl atom (3)

| SMILES | cell number change [%] | AC50 [1] | AC50 [2] |
| --- | --- | --- | --- |
| Cc1ccnc(NC(=O)CCNC(=O)c2ccc(Cl)cc2)c1 | 4.86 | 18.4 µM [falling, single point] |  |
| CCCOC(=O)CSc1nnc(-c2ccccc2Cl)o1 | 32.3 | 1.64 µM [falling, partial curve] | 3.26 µM [rising, full curve] |
| O=C(CN1CCN(S(=O)(=O)c2cccc(Cl)c2)CC1)N1CCCCC1 | -16 |  |  |

Next records

| SMILES | cell number change [%] | AC50 [1] | AC50 [2] |
| --- | --- | --- | --- |
| Cc1ccc(C)c(OC(=O)c2cncc(Br)c2)c1 | 7.8 | 0.0731 µM [rising, full curve, poor fit] |  |
| O=C(O)CCn1cc(C(=O)O)c(-c2ccccc2)n1 | -2.13 | 0.116 µM [falling, partial curve, poor fit] |  |
| CC(C)(CNC(=O)CCNC(=O)c1ccc(Br)cc1)N1CCOCC1 | 10.4 |  |  |
| COc1ccc(CCNC(=O)c2nn(C)c3c2CS(=O)(=O)c2ccccc2-3)c(OC)c1 | 10.7 |  |  |
| Cc1c(Cl)cccc1NC(=S)N(C)CCC#N | 43.6 |  |  |
| COc1ccc(C(=O)N2CC3(CC(c4cccc(NC(=O)COc5ccc(Cl)cc5)c4)=NO3)C[C@@H]2C(N)=O)cc1 (some centres undefined) | -32.5 | 16.4 µM [falling, partial curve] | 18.4 µM [falling, single point] |
| Cc1ccc(CNC(=O)CCC(=O)Nc2nnc(C(C)C)s2)cc1 | 2.45 |  |  |
| CCN(CC)CC(C)(C)COC(=O)c1oc2ccccc2c1C | -7.9 |  |  |
| CS(=O)(=O)Nc1cccc(C2=NN(C(=O)CCC(=O)O)C(c3cccs3)C2)c1 (centres undefined) | 26.4 | 8.2 µM [rising, partial curve, poor fit] |  |
| CC1(C)CC(=O)C(C=Nc2ccc(C(=O)c3ccccc3)cc2N=CC2=C(O)CC(C)(C)CC2=O)=C(O)C1 | 87.3 |  |  |
| Cc1cc(=O)oc(C)c1C(=O)NCC(C)C |  |  | 0.00461 µM [rising, full curve, poor fit] |
| COc1ccc(CNC(=O)COc2cc3c(c4oc(=O)cc(C)c24)CCC(C)(C)O3)cc1 | -23.6 | 0.731 µM [falling, partial curve, poor fit] |  |
| CC1Cc2cc(/C(O)=C3/C(=O)C(=O)N(CCCn4ccnc4)C3c3ccc(Br)cc3)ccc2O1 (centres undefined) | -3.44 |  |  |
| COC(=O)c1ccccc1NC(=O)Nc1c(C)n(C)n(-c2ccccc2)c1=O | 5.41 | 5.17 µM [rising, single point] |  |
| COc1ccc(CCN(C)C(=O)c2cnc(C)cn2)cc1OC | -11.4 | 0.411 µM [rising, full curve] |  |
| O=C(Nc1cc(Cl)ccc1O)c1cc(-c2ccco2)on1 | 10 | 1.16 µM [rising, single point] |  |
| Cc1ccc(NC(=O)C2CCN(c3cnccn3)CC2)cc1 | 23.2 | 29.1 µM [rising, single point] |  |
| CCCCN(C(=O)/C=C/c1ccco1)c1c(N)n(CCC)c(=O)[nH]c1=O | -64 |  | 29.1 µM [falling, single point] |
| CCCCn1cnc2cc(C)c(C)cc21 | -23.6 |  |  |
